# Measurements reported in PubChem BioAssay AID445 (National Center for Advancing Translational Sciences (NCATS), 2006).
# Some of the results follow. Further columns of the screen follow, without active or inactive calls. Most of these compounds were active or inconclusive in the main read-out, so they are no random draw. Words in brackets tell the shape of the fitted curve; partial curves, single points and poor fits give uncertain potencies.
# Experiment: IkB Signaling
# Settings: ABC-DLBCL IkBa-CBG/CBR dual luciferase ratio (green luciferase fused to IkBa over red control in OCI-Ly3 lymphoma cells), 4 h
# How it was run: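 In this assay, an IκBα–CBG68 fusion accumulates when IKK-driven degradation is blocked; native CBR normalizes for cell number. OCI-Ly3 cells were treated 4 h with compound and doxycycline, then green and red light read after Chroma-Glo addition.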
# [1] = measured here: IkB-luc green channel
# [2] = measured here: control luc red channel
# [3] = measured here: control luc red channel unless noted
smiles,measurement,setting,value
COc1ccc(CNC(=O)c2nc(S(=O)(=O)Cc3ccccc3)ncc2Cl)cc1,AC50,[1],"6.31 µM [rising, single point]"
same,AC50,[2],"10 µM [falling, partial curve]"
CCOc1ccccc1-n1c(SCC(=O)Nc2nccs2)nnc1-c1ccoc1C,AC50,[3],"25.1 µM [falling, partial curve]"
COc1ccc(CCNC(=O)CCc2c(C)nc3c(-c4ccc(F)cc4)c(C)nn3c2C)cc1OC,AC50,[3],"39.8 µM [falling, single point]"
Cc1ccc(-n2c(SCc3nc(-c4ccc(Cl)cc4)no3)nnc2-c2ccncc2)cc1,AC50,[3],"15.8 µM [falling, partial curve]"
COc1ccc(-c2nc(CSCC(=O)N3CCN(c4cccc(C)c4)C(C)C3)c(C)o2)cc1OC (stereo not given),AC50,[1],"15.8 µM [falling, partial curve]"
same,AC50,[2],"10 µM [falling, partial curve]"
CCc1ccc(NC(=O)CN(c2ccc(C)cc2)S(=O)(=O)c2c(C)nn(C)c2C)cc1,AC50,[3],"15.8 µM [falling, partial curve]"
CCOc1cccc(CC(=O)N2CCc3c([nH]c4ccccc34)C2c2ccc(OC)cc2)c1OCC (stereo not given),AC50,[3],"10 µM [falling, partial curve]"
COc1ccc(-c2c(C)nn3c(C(F)(F)F)cc(C)nc23)cc1OC,AC50,[3],"0.794 µM [falling, full curve, poor fit]"
Cc1ccccc1CN1C(=O)c2ccccc2S(=O)c2ccc(C(=O)NCc3ccccc3)cc21 (stereo not given),AC50,[3],"6.31 µM [falling, full curve, poor fit]"
CCCc1nn2c(=O)cc(COC(=O)c3ccccc3NC(=O)C3CCCCC3)nc2s1,AC50,[3],"39.8 µM [falling, single point]"
Cc1ccc(NC(=O)CC(O)(C(F)(F)F)C(F)(F)F)c(Br)c1,AC50,[3],"25.1 µM [falling, single point]"
COC(=O)c1c(C)sc(-c2c(-c3ccc(F)cc3)[nH]c3[nH]c(=O)[nH]c(=O)c23)c1O,AC50,[3],"31.6 µM [falling, single point]"
Cc1ccc(CNC(=O)c2cnn3c(C)c(Cc4c(F)cccc4Cl)c(C)nc23)cc1,AC50,[3],"39.8 µM [falling, single point]"
CCOc1ccc(CCNC(=O)c2ccc(C)c(-n3c(C)nc4cccnc43)c2)cc1OCC,AC50,[3],"39.8 µM [falling, single point]"
Cc1cccc(-c2nnc(SCC(=O)NC3CCCCC3)o2)c1,AC50,[3],"12.6 µM [falling, partial curve]"
CN1/C(=C\C(=O)COc2ccc3c(c2)OCO3)C(C)(C)c2ccccc21,AC50,[3],"31.6 µM [falling, partial curve]"
COc1ccc(N(Cc2cccs2)C(=O)COc2ccc([N+](=O)[O-])cc2)cc1,AC50,[3],"31.6 µM [falling, single point]"
CCOc1ccc(-c2cc(CCCC(=O)NCc3cccnc3)no2)cc1,AC50,[3],"5.01 µM [falling, partial curve]"
CCOc1ccc(C(=O)Nc2cc(-c3ccccc3)no2)cc1,AC50,[3],"0.251 µM [rising, full curve]"
CCN(Cc1ccccc1)C(=O)c1cc2ccc3cccnc3c2[nH]1,AC50,[3],"31.6 µM [falling, single point]"
O=C1c2oc3ccccc3c(=O)c2C(c2cccc(O)c2)N1Cc1ccc(F)cc1 (stereo not given),AC50,[3],"25.1 µM [falling, single point]"
CCOc1ccc(N(CC(=O)Nc2ccc3c(c2)OCO3)S(=O)(=O)c2ccccc2)cc1,AC50,[3],"20 µM [falling, partial curve]"
O=C(c1cc(-c2ccc(Cl)cc2)on1)N(Cc1ccc(F)cc1)Cc1ccco1,AC50,[3],"0.251 µM [falling, full curve, poor fit]"
CCn1c(COc2cccc(OC)c2)nnc1SCC(=O)Nc1cccc(OC)c1,AC50,[3],"12.6 µM [falling, partial curve]"
COc1ccccc1-c1noc(CCC(=O)Nc2cccc(C)c2)n1,AC50,[3],"3.98 µM [falling, partial curve]"
CCc1cccc(NC(=O)c2sc3nc[nH]c(=O)c3c2C)c1,AC50,[3],"0.1 µM [falling, full curve, poor fit]"
O=C1CN(C(=O)c2ccc(S(=O)(=O)N3CCCC3)cc2)C(c2ccc(F)cc2)c2cc(F)ccc2N1 (stereo not given),AC50,[3],"0.158 µM [falling, full curve]"
CCN(c1ccccc1)S(=O)(=O)c1nnc(NC(=O)C(C)Oc2ccccc2)s1 (stereo not given),AC50,[3],"2.51 µM [falling, full curve]"
COc1ccc(C2c3c(-c4cc(Cl)c(C)cc4O)n[nH]c3C(=O)N2Cc2cccnc2)cc1OC (stereo not given),AC50,[3],"25.1 µM [falling, partial curve]"
COc1cc(C2C(C(=O)Nc3ccc(C)cc3C)=C(C)Nc3nc(SCc4ccccc4)nn32)cc(OC)c1OC (stereo not given),AC50,[3],"0.02 µM [rising, partial curve, poor fit]"
COc1cc(C(=O)Nc2ccc(-n3cnnn3)c(C)c2)cc(OC)c1OC,AC50,[3],"39.8 µM [falling, partial curve]"
CCOC(=O)N1CCN(C(=O)c2ccc3c(=O)n(Cc4ccc(OC)cc4)c(=S)[nH]c3c2)CC1,AC50,[3],"25.1 µM [falling, partial curve]"
COc1cc(C(=O)Nc2nccs2)c(Br)c(OC)c1OC,AC50,[3],"5.01 µM [falling, partial curve]"
CCOC(=O)c1c(NC(=O)COc2cccc(C)c2C)sc2c1CCCCC2,AC50,[3],"39.8 µM [falling, single point]"
Cc1ccc(Cn2ccn(Cc3cccc(C(F)(F)F)c3)c(=O)c2=O)cc1,AC50,[3],"2.51 µM [falling, partial curve]"
COc1cccc(NC(=O)CSc2nc3c([nH]c4ccccc43)c(=O)n2-c2cccc(Cl)c2)c1,AC50,[3],"0.794 µM [falling, full curve]"
CCOC(=O)c1ccc(NC(=O)CSc2nc(C)c(Cc3ccccc3)c(=O)[nH]2)cc1,AC50,[3],"12.6 µM [falling, partial curve]"
Cc1ccc(-c2ccc(=O)n(CC(=O)Nc3ccc(C(C)C)cc3)n2)cc1,AC50,[3],"15.8 µM [falling, partial curve, poor fit]"

# A second format for part of the listing above:
smiles	measurement	setting	value
COc1ccc(N(Cc2cccs2)C(=O)COc2ccc([N+](=O)[O-])cc2)cc1	AC50	[3]	31.6 µM [falling, single point]
CCOc1ccc(-c2cc(CCCC(=O)NCc3cccnc3)no2)cc1	AC50	[3]	5.01 µM [falling, partial curve]
